The text below walks through data of paper PMC3875777.

Chains of the proteins cited; added tags and fusions are not shown. Lines headed by an entry give the natural chain unless they say otherwise; changes in a name come on top.
UniProt Q09472, whole entry: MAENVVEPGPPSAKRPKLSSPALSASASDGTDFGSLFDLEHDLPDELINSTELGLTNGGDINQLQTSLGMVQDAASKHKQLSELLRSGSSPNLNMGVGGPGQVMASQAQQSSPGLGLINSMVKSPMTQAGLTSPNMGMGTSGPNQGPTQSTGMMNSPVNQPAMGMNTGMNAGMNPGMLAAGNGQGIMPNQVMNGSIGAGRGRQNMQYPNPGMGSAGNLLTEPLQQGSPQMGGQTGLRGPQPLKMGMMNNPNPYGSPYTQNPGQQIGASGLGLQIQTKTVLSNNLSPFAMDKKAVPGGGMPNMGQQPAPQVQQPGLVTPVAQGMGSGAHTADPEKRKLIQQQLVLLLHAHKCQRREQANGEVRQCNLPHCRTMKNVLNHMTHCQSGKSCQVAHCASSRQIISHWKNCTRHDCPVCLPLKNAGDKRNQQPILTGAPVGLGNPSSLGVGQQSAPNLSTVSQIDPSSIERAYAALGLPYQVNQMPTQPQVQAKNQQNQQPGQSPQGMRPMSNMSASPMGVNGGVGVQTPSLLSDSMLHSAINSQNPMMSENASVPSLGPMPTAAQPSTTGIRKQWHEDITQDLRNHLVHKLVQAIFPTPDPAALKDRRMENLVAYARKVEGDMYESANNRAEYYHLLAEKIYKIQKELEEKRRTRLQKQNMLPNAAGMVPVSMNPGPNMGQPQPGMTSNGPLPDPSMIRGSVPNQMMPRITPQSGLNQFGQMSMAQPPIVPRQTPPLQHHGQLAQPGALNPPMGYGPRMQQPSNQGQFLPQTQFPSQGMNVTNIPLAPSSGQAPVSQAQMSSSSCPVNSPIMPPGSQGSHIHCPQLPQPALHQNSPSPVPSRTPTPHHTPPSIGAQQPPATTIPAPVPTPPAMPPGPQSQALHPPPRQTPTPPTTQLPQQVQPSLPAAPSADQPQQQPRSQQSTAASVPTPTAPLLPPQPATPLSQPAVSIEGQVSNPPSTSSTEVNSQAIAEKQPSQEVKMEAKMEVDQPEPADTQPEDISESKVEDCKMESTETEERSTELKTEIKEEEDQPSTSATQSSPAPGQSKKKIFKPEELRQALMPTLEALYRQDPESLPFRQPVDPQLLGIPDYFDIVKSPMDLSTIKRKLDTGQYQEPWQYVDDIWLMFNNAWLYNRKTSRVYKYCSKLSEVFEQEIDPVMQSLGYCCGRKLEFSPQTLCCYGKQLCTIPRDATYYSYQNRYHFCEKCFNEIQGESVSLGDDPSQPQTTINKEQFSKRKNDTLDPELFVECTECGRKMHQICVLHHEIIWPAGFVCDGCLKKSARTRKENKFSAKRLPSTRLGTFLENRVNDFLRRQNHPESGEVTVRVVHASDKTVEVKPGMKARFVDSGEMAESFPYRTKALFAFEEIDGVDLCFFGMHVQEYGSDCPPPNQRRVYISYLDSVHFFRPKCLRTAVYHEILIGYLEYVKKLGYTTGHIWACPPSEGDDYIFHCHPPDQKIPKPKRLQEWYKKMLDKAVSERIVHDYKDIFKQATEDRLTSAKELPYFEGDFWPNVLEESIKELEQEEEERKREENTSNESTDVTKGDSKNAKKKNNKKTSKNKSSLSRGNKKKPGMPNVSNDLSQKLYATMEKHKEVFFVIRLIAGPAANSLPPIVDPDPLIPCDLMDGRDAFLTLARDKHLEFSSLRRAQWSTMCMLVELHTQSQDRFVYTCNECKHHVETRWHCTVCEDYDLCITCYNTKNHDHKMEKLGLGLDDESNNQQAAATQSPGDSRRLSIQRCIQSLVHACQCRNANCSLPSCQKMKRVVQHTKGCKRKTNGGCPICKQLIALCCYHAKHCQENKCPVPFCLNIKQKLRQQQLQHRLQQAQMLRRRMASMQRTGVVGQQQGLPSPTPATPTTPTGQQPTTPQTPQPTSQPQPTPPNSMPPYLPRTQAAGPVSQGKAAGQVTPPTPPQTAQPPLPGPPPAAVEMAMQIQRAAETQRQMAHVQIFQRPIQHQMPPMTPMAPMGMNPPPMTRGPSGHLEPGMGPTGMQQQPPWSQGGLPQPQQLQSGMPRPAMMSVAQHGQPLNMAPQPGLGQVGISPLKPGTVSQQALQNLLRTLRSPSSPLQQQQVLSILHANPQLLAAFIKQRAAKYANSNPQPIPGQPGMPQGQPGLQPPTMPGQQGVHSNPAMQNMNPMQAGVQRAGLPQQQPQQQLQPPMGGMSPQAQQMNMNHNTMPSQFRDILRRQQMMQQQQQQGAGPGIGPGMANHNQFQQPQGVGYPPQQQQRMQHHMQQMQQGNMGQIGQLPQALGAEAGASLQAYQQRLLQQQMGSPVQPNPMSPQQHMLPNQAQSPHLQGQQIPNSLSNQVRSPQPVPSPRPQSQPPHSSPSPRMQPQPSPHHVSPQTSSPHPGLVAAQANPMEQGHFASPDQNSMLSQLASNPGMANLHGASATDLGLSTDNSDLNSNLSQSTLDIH
UniProt O43364: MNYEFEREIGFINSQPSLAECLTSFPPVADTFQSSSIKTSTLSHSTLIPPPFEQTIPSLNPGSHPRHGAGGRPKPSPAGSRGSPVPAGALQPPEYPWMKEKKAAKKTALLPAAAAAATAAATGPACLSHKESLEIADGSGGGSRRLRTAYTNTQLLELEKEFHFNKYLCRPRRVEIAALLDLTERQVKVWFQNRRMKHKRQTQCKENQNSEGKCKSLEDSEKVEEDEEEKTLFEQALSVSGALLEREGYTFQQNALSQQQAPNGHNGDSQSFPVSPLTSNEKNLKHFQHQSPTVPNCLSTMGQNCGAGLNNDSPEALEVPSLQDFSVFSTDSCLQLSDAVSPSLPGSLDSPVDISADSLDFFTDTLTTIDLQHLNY
UniProt P20226, whole entry: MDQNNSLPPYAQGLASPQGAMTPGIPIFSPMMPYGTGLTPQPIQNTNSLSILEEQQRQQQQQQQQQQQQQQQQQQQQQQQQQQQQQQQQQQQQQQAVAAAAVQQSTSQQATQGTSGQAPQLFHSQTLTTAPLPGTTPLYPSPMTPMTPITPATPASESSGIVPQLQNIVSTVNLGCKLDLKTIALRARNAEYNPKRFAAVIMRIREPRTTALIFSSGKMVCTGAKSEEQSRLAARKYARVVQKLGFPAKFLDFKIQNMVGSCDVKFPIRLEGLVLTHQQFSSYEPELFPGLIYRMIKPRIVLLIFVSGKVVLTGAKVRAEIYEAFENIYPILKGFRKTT

Data set [1] deals with p300-3F (Flag-tagged p300) (UniProt Q09472). The experiment in a line: pull-down. Particulars: Pull-down: 100-250 pmole probe on M-280 streptavidin Dynabeads, 100-250 ug nuclear extract, 2.5 ug salmon sperm DNA, 1 h room temperature, washes with 0.5% NP-40, protein in a lysate after overexpression, protein details: Flag (3F), label: 5'-biotin.
In data set [2] the target is HOXA2-Flag (Homo sapiens) (UniProt O43364). Briefly: pull-down. The conditions noted are these: HOXA2-expressing HK1 extract, Pull-down: 100-250 pmole probe on M-280 streptavidin Dynabeads, 100-250 ug nuclear extract, 2.5 ug salmon sperm DNA, 1 h room temperature, washes with 0.5% NP-40, protein in a lysate after overexpression, protein details: Flag, label: 5'-biotin.

In another data set the target is TBP (endogenous) (UniProt P20226). The experiment in a line: pull-down. The conditions noted are these: Pull-down: 100-250 pmole probe on M-280 streptavidin Dynabeads, 100-250 ug nuclear extract, 2.5 ug salmon sperm DNA, 1 h room temperature, washes with 0.5% NP-40, protein in an extract, label: 5'-biotin.
Another data set concerns the target recombinant His-HOXA2 (UniProt O43364). The experiment in a line: EMSA. Particulars: binding dropped dramatically; EMSA: LightShift kit, 20 fmol probe, 37 C 20 min, 6% gel in 1X TBE; salt and pH not given; recombinant protein; protein details: His; label: 5'-biotin. Background: A gel shift assay detects complexes by their altered migration in electrophoresis.
Another data set addresses recombinant His-TBP (UniProt P20226). The experiment in a line: EMSA. The conditions noted are these: binding dropped dramatically; EMSA: LightShift kit, 20 fmol probe, 37 C 20 min, 6% gel in 1X TBE; salt and pH not given; recombinant protein; protein details: His; label: 5'-biotin.

The exact form of at least one protein or probe is not confirmed. For some of these results: The comparison behind a weaker result is the experiment's own reference, which may not be listed here. For some of these results: Results from cells or extracts need not show a direct contact. For some of these results: No signal at the amounts used counts as a negative. For some of these results: Whether high values mean tight binding is not given here for every scale.

Consider “CCCCCAAAAAAAAAGGG (double strand) [HOXA2 p300-1 MT]”, for which the binding result in data set [1] is given as “no binding”.
As for “CCCCCACGTACTCCGGG (double strand) [HOXA2 p300-1 ME]”, the binding signal in data set [1] (CpG methylated, 5-methylcytosine at CpG: strand 1 C7 and C14, strand 2 C3 and C10) was 0.6 fold of WT.
On to “GGGAGTGGGGAGTGGGGAGTGAAA (double strand) [3 copies of p300 consensus (P)]”, for which the binding result in data set [1] is listed as “binds”.
Turning to “GAGCGCCTCCTTAAAGCCCCCACAA (double strand) [MMP9 TATA WT]”, the binding result in data set [2] is on record as “binds”; with TBP (endogenous) (HOXA2-expressing HK1 extract), “binds more weakly”; with TBP (endogenous) (vector HK1 extract), “binds”.
As to “GAGCGCCTCCGGGGGGCCCCCACAA (double strand) [MMP9 TATA MT]”, the binding result in the data set with recombinant His-HOXA2 and in the data set with recombinant His-TBP was “binds more weakly” each time.
“CCCCCACGTACTCCGGG (double strand) [HOXA2 p300-1 WT]”: the binding signal in data set [1] (reference) is 1 fold of WT.
As to “AAAAATAAAATAAAATAAATAAATA (double strand) [MMP9 control (putative HOXA2-response element, -1421)]”, the binding result in data set [2] ('little or no' binding) is reported as “no binding”.
